The results in this text go back to patent US11458200B2, “Constructs, agents, and methods for facilitated ablation of cardiac tissue” (priority 2016, dated 2022).

The data set relates to epicardium. The data set is described as follows: Open-chest rodent survival model of epicardial RF ablation after IV quercetin. The format is in vivo. The note with it: 24 hours after RFA group, 3 W, IV 10 mg/kg. As for the experimental part:
Using an open-chest rodent survival model and a custom-made catheter, RF was applied to the epicardium at 3 W for 20 seconds after infusion of a HSP inhibitor, intravenous quercetin (n=20, 10 mg/kg), or control (n=20). Animals were sacrificed at 1 (n=10 each) and 24 hours (n=10 each) after ablation. RFA lesions were stained and analyzed under microscopy.

Consider `O=c1c(O)c(-c2ccc(O)c(O)c2)oc2cc(O)cc(O)c12` [Quercetin, 3,3′,4′,5,7-pentahydroxyflavone], for which the “Impedance Drop” value was found to be 401 ± 105, the “Initial Impedance” value turned out to be 597 ± 123 and the Peak temp is listed as 75 ± 8. For the setting “listed as quercetin”, the “Impedance Drop” value was “not different”, the “Initial Impedance” value was “not different” and the Peak temp entry is given as “not different”.
